The results in this text go back to the supplement of paper PMC10849652.

By UniProt entry, the sequences of proteins in these tests, tags left out. Where a name states a change or a piece, a line headed by the entry shows the natural chain unless it says otherwise.
UniProt Q9NP77: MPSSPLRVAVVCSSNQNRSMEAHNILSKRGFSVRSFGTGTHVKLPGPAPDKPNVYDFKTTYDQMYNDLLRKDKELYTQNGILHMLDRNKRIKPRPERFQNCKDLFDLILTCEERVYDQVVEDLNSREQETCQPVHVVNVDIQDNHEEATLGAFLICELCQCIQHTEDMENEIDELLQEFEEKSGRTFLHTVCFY
UniProt Q96SB4, whole entry, looked up: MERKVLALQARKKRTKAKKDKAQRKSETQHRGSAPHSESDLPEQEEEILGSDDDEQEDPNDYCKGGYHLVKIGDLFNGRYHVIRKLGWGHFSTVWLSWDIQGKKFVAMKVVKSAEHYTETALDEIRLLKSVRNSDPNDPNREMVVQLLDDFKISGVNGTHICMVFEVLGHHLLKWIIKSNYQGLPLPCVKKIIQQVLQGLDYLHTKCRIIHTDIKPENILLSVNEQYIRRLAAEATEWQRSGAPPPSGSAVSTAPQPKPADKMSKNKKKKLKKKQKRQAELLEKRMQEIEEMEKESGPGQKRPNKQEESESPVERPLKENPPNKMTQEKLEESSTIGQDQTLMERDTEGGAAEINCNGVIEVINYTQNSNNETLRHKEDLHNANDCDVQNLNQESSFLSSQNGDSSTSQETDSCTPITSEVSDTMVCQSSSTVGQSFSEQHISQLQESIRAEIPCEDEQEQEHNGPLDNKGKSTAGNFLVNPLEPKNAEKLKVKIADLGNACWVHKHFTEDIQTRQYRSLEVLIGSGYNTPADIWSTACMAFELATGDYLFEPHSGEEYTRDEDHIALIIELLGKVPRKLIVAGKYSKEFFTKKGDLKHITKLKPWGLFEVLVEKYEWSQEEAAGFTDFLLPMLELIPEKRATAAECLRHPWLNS
UniProt O95630, whole entry, looked up: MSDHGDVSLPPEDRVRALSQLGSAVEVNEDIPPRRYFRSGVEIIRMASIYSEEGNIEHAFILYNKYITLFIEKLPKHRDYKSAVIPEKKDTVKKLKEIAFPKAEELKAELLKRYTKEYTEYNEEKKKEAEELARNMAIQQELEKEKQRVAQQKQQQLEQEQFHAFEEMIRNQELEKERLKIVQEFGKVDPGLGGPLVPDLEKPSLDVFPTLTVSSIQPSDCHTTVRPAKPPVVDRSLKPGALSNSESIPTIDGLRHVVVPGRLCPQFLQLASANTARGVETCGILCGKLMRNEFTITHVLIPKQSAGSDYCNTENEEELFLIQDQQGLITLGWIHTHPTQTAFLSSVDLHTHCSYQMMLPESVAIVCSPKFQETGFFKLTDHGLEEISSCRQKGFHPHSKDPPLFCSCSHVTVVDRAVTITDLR
UniProt O15270: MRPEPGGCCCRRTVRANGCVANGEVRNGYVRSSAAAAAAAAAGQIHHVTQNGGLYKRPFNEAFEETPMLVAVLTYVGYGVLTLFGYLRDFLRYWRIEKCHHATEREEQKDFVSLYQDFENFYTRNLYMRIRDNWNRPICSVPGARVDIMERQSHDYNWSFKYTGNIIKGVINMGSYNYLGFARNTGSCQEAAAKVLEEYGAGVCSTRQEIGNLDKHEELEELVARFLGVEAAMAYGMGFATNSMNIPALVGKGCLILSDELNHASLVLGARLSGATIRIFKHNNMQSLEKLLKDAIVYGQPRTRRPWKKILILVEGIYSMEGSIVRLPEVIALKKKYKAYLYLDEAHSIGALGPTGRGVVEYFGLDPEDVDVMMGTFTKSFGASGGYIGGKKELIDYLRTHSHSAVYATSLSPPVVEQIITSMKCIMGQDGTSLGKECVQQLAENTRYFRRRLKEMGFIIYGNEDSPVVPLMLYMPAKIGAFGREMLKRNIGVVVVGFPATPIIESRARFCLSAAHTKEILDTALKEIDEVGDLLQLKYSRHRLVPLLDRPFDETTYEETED
UniProt Q07955, whole entry, looked up: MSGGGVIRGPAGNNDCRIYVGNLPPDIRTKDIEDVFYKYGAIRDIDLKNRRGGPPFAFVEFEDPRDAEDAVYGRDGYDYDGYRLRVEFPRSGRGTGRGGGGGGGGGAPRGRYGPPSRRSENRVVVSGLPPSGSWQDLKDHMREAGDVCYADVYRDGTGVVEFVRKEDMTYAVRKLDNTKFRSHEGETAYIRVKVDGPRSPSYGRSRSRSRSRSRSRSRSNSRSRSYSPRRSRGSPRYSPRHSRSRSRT
UniProt Q13247: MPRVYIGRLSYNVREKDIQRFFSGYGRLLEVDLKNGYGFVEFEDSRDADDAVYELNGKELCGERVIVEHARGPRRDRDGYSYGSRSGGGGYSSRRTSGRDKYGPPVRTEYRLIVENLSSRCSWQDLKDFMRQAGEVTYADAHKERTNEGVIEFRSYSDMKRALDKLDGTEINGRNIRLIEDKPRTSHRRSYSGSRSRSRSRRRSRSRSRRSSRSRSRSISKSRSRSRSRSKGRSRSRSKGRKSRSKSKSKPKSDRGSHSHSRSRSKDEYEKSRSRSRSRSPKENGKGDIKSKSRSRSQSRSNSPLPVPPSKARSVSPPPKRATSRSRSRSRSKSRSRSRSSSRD
UniProt O95793: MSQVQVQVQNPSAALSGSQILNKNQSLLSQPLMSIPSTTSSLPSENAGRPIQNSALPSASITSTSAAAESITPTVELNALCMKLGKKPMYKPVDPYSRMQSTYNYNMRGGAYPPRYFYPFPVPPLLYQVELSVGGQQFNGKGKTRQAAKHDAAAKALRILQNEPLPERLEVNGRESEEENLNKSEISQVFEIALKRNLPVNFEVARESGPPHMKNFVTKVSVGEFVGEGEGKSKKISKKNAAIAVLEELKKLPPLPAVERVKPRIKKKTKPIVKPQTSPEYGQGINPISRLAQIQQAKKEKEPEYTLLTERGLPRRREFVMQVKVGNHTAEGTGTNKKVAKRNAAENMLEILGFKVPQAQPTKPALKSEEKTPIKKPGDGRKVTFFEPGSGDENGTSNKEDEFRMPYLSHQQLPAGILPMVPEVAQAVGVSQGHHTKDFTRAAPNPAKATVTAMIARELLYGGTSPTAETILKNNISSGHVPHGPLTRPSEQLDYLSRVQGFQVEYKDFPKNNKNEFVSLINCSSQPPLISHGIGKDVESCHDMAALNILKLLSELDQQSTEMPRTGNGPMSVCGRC
UniProt Q08AE8, whole entry, looked up: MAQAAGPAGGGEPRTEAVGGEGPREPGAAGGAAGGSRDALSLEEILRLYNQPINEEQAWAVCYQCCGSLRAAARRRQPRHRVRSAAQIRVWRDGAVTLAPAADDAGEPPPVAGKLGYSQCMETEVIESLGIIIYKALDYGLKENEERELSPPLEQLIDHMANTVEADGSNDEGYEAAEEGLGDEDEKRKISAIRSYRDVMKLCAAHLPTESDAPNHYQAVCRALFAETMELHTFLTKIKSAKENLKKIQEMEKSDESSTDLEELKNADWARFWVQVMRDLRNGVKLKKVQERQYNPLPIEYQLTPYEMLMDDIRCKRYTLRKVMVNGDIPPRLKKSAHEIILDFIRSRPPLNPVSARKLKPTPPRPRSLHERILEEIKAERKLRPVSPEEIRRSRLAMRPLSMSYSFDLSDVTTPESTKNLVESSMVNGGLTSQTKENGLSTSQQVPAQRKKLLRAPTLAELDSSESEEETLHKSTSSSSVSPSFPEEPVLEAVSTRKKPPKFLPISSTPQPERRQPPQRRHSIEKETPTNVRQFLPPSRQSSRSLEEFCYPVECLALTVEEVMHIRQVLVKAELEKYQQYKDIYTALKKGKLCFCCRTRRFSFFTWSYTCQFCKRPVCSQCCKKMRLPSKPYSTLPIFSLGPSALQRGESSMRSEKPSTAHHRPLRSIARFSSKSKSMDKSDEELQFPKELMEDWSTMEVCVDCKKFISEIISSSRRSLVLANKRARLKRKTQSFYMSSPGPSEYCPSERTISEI
UniProt P35270: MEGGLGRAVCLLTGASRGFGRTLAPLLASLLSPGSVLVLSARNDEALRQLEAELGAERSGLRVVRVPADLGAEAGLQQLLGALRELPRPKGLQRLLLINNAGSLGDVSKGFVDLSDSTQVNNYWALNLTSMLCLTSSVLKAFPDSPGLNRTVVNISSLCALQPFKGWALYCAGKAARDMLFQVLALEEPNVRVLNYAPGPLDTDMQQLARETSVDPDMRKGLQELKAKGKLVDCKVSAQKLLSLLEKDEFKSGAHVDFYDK
UniProt Q9UHB9: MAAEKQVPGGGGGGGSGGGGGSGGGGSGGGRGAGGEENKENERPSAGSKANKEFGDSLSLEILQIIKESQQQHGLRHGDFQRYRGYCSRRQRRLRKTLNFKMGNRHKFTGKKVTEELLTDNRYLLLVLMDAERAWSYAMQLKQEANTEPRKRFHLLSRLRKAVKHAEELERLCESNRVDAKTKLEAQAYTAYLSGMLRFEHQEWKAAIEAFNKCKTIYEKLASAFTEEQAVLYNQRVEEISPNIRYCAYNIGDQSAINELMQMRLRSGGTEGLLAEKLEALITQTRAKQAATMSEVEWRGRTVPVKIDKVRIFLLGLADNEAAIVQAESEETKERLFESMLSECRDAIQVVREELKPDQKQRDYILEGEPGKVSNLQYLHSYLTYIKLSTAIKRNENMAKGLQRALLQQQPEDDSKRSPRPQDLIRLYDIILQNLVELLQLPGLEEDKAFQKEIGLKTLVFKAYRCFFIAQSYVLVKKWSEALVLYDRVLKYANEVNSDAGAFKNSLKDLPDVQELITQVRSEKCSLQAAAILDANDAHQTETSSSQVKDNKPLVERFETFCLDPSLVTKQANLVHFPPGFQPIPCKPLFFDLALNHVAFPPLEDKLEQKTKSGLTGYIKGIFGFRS
UniProt P61009: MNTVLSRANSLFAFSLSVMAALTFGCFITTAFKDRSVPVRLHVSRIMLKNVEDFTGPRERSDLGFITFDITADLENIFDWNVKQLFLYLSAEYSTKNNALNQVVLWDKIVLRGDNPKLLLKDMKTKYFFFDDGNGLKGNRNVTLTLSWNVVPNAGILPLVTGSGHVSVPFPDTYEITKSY
UniProt Q8WW59: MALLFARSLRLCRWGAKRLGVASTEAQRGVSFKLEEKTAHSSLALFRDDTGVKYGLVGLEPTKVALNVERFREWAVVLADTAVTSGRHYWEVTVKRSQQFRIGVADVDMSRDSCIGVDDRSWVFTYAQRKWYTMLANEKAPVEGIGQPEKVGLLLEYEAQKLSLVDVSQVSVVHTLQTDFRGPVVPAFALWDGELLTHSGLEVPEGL
UniProt Q8N5C6: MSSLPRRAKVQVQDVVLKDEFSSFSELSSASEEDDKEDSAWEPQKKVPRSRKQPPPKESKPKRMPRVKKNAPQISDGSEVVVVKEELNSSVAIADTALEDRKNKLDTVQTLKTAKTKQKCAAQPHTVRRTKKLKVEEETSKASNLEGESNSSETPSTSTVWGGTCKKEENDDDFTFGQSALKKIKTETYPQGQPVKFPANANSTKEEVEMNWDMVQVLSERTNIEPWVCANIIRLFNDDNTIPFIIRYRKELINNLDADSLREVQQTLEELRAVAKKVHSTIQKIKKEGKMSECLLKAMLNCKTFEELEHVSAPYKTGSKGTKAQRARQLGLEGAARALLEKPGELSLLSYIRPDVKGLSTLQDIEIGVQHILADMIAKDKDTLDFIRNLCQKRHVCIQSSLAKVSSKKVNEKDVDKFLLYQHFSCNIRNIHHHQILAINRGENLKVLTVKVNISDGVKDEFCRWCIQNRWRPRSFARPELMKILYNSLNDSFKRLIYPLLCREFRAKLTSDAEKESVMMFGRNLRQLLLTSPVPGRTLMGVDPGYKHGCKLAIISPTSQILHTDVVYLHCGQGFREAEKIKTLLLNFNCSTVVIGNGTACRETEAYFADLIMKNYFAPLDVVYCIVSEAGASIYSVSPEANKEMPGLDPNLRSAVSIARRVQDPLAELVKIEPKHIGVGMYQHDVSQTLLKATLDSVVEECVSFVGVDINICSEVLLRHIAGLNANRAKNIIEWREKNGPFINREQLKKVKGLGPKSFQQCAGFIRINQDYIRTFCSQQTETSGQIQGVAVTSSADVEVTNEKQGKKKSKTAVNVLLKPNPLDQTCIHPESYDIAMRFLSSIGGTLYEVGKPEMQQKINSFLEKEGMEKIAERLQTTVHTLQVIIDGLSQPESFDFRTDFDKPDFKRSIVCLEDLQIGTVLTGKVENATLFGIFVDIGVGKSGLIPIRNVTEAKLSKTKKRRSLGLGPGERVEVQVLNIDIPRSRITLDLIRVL
UniProt Q16842: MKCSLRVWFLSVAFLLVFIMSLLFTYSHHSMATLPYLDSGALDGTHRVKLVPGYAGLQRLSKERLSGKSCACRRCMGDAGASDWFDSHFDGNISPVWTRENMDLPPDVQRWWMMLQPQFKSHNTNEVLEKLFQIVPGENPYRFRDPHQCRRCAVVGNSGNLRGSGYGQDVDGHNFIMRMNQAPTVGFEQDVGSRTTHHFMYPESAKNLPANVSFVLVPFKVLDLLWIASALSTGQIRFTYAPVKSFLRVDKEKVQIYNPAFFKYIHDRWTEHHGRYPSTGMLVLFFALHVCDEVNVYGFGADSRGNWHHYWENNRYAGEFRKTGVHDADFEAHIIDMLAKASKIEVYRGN
UniProt O43805: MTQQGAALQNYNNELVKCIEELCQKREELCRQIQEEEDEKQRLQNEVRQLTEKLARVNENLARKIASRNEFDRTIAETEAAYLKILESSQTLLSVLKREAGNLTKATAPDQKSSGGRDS

Some of the results follow.

Compound in the assay: Cc1ccc(NC(=O)c2ccc(CN3CC[C@H](N(C)C)C3)c(C(F)(F)F)c2)cc1Nc1nccc(-c2cncnc2)n1 [bafetinib]
Put plainly: log2 fold change, soluble protein after heating vs DMSO (PISA); higher = thermal stabilisation; K562 lysate, 10 uM; active = over 0.2 and 3.5 SD of the protein, either way, in both replicates (recomputed). The method, boiled down:
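The values are log-two fold changes in thermal stability compared with solvent controls and come from duplicates. They were obtained by TMTpro 16plex LC-MS/MS, with channel sums equalised, on the supernatant after 21,000xg for 90 min. That supernatant came from crude K562 extract at 1 mg/mL protein treated with 10 μM compound for 30 min, heated for 3 min across 48°C-58°C, pooled and brought to 0.5% NP-40 at 4°C.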
As for SREBF2 (UniProt Q12772), the log2 fold change is inactive: 0.008.
Consider SPDL1 (UniProt Q96EA4), for which the log2 fold change is inactive: -0.032.
Turning to SSU72 (UniProt Q9NP77), the log2 fold change is inactive: -0.052.
In the case of SRPK1 (UniProt Q96SB4) it was inactive: -0.028; in that of STAMBP (UniProt O95630), inactive: 0.022.
Take SPTLC2 (UniProt O15270): the log2 fold change is inactive: -0.085.
For SRSF4 (UniProt Q08170), the log2 fold change was inactive: 0.021.
The figure for SRSF1 (UniProt Q07955) is inactive: 0.016.
Turning to SRSF6 (UniProt Q13247), the log2 fold change was inactive: -0.098.
On to SPTBN2 (UniProt O15020), for which the log2 fold change was inactive: -0.053.
As for SPATA5L1 (UniProt Q9BVQ7), the log2 fold change was inactive: -0.001.
As for STAU1 (UniProt O95793), the log2 fold change is inactive: -0.089.
Consider SPIRE1 (UniProt Q08AE8), for which the log2 fold change was inactive: -0.031.
For SPR (UniProt P35270), the log2 fold change was inactive: -0.09.
Consider SPATS2 (UniProt Q86XZ4), for which the log2 fold change is inactive: -0.206.
Regarding SPATA5 (UniProt Q8NB90), the log2 fold change was inactive: -0.05.
On to SRP68 (UniProt Q9UHB9), for which the log2 fold change was inactive: -0.021.
As for SPCS3 (UniProt P61009), the log2 fold change was inactive: 0.026.
The figure for SPRYD4 (UniProt Q8WW59) is inactive: -0.071.
Take SSBP1 (UniProt Q04837): the log2 fold change is inactive: 0.027.
As for SRBD1 (UniProt Q8N5C6), the log2 fold change was inactive: 0.003.
ST3GAL2 (UniProt Q16842): the log2 fold change is inactive: 0.096.
SRCAP (UniProt Q6ZRS2): the log2 fold change was inactive: -0.028.
With SSNA1 (UniProt O43805), the log2 fold change is inactive: -0.014.
